{
  "source": "patent US9494592B2",
  "about": "“Reaction-based fluorescent probes for sulfane sulfur and the application in bioimaging” (Washington State University, priority 2013, dated 2016)",
  "experiment": "Fluorescence response of probes to Na2S2 (H2S2 equivalent) in PBS buffer with CTAB",
  "settings": "probe 5.0 μM, Na2S2 0.5 to 25 μM, 10 min, 50 mM PBS, 1 mM CTAB",
  "experimental": "The stock solution of SSP1 (1 mM) and SSP2 (1 mM) were prepared in CH3CN, respectively. The solutions of various testing species were prepared from Cysteine (Cys), GSH, Homocysteine (Hcy), Glutathione disulfide (GSSG), Na2S.9H2O, Na2S2O3, Na2SO3, Na2SO4, Na2S2 in 50 mM PBS buffer. The stock solution of Cetrimonium bromide (CTAB, 100 mM) and S8 (10 mM) were prepared in EtOH, respectively. The stock solution of Cys-polysulfide (10 mM) was prepared in CH3CN. All the test solution need to be freshly prepared.\nUnless otherwise noted, all the measurements were carried out for 10 min at 25° C. in 50 mM PBS buffer (pH 7.4) with 1 mM CTAB according to the following procedure. In a test tube, 3.5 mL of 50 mM PBS buffer (pH 7.4) and 40 μL of the stock solution of CTAB were mixed, and then added 20 μL of the stock solution of SSP1 or SSP2. The resulting solution was mixed well, followed by addition of a requisite volume of testing species sample solution. The final volume of the reaction solution was adjusted to 4 mL with 50 mM PBS buffer (pH 7.4). After mixing and then standing for 10 min at room temperature, a 4-mL portion of the reaction solution was transferred into a 1-cm quartz cell to measure fluorescence with λex=380 nm (for SSP1) or 482 nm (SSP2). In the meantime, a blank solution containing no testing species sample was prepared and measured under the same conditions for comparison. […]",
  "data": [
    {"smiles": "O=C(Oc1ccc2ccc(=O)oc2c1)c1ccccc1S", "note": "[SSP1]", "values": [
      {"measurement": "detection limit", "value": 73, "unit": "nM"}
    ]},
    {"smiles": "COc1ccc2c(c1)Oc1cc(OC(=O)c3ccccc3S)ccc1C21OC(=O)c2ccccc21", "note": "(centres unmarked) [SSP2]", "values": [
      {"measurement": "detection limit", "value": 32, "unit": "nM"}
    ]}
  ]
}
